PubChem BioAssay AID1224830 – NIAID | 2016

Purpose: 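Genes whose knock-down alters the TNF-alpha reporter response to LPS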 (primary screen)
Cells: human THP-1 monocytic leukaemia cells, TNF dual-luciferase reporter clone, PMA-differentiated to macrophage-like cells
Knock-down reagent: siRNA pool against human genes, 50 nM
Timing: LPS for 4 h, given about 3 days after siRNA transfection
Treatment: bacterial LPS (TLR4 ligand), 10 ng/ml
Detection: 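Ratio of firefly to renilla light, scaled to the plate median and expressed as a robust z-score per replicate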
Direction: TNF reporter robust z-score: higher = stronger TNF reporter response to LPS
Hit rule: 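Each well counts as active if its z-score is over 2.8 or under -1.5; controls are left without a call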
In all, the deposit lists about 18,000 reagents; below is a random part of them. Of all reagents, about 2,900 (16%) are marked active. 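Calls are made per well; low scores hint the gene aids the LPS response, high scores that it dampens it.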 Entries without a mark were called inactive. Repeated entries: four replicate wells of each siRNA pool. No sequences are given here.

no.	gene	TNF reporter robust z-score
1	GDF5 (growth differentiation factor 5)	1.02
2	GDF5 (growth differentiation factor 5)	2.52
3	GDF5 (growth differentiation factor 5)	0.37
4	GDF5 (growth differentiation factor 5)	1.71
5	LOC652436 (retired record)	-0.55
6	LOC652436 (retired record)	-0.62
7	LOC652436 (retired record)	0.04
8	LOC652436 (retired record)	-0.2
9	DNAJC25-GNG10 (DNAJC25-GNG10 readthrough)	-2.01 (active)
10	DNAJC25-GNG10 (DNAJC25-GNG10 readthrough)	-1.56 (active)
11	DNAJC25-GNG10 (DNAJC25-GNG10 readthrough)	-1.84 (active)
12	DNAJC25-GNG10 (DNAJC25-GNG10 readthrough)	-1.75 (active)
13	CELF3 (CUGBP Elav-like family member 3)	-1.25
14	CELF3 (CUGBP Elav-like family member 3)	-1.48
15	CELF3 (CUGBP Elav-like family member 3)	-1.18
16	CELF3 (CUGBP Elav-like family member 3)	-1.31
17	CPEB4 (cytoplasmic polyadenylation element binding protein 4)	1.09
18	CPEB4 (cytoplasmic polyadenylation element binding protein 4)	0.51
19	CPEB4 (cytoplasmic polyadenylation element binding protein 4)	0.57
20	CPEB4 (cytoplasmic polyadenylation element binding protein 4)	0.71
21	ACOT13 (acyl-CoA thioesterase 13)	1.35
22	ACOT13 (acyl-CoA thioesterase 13)	0.95
23	ACOT13 (acyl-CoA thioesterase 13)	0.62
24	ACOT13 (acyl-CoA thioesterase 13)	0.07
25	ERN2 (endoplasmic reticulum to nucleus signaling 2)	-0.45
26	ERN2 (endoplasmic reticulum to nucleus signaling 2)	-0.3
27	ERN2 (endoplasmic reticulum to nucleus signaling 2)	-0.34
28	ERN2 (endoplasmic reticulum to nucleus signaling 2)	0.16
29	APOD (apolipoprotein D)	-0.46
30	APOD (apolipoprotein D)	1.25
31	APOD (apolipoprotein D)	0.18
32	APOD (apolipoprotein D)	1.09
33	AHCYL1 (adenosylhomocysteinase like 1)	-0.71
34	AHCYL1 (adenosylhomocysteinase like 1)	-0.37
35	AHCYL1 (adenosylhomocysteinase like 1)	-0.35
36	AHCYL1 (adenosylhomocysteinase like 1)	-0.6
37	MSX1 (msh homeobox 1)	-0.35
38	MSX1 (msh homeobox 1)	0.22
39	MSX1 (msh homeobox 1)	0.12
40	MSX1 (msh homeobox 1)	0.08
41	MAPK9 (mitogen-activated protein kinase 9)	2.15
42	MAPK9 (mitogen-activated protein kinase 9)	1.32
43	MAPK9 (mitogen-activated protein kinase 9)	1.81
44	MAPK9 (mitogen-activated protein kinase 9)	1.05
45	MACF1 (microtubule actin crosslinking factor 1)	-0.47
46	MACF1 (microtubule actin crosslinking factor 1)	-1.02
47	MACF1 (microtubule actin crosslinking factor 1)	-1.21
48	MACF1 (microtubule actin crosslinking factor 1)	-0.46
49	PRODH (proline dehydrogenase 1)	0.13
50	PRODH (proline dehydrogenase 1)	1.1
51	PRODH (proline dehydrogenase 1)	0
52	PRODH (proline dehydrogenase 1)	0.12
53	BPY2 (basic charge Y-linked 2)	6.43 (active)
54	BPY2 (basic charge Y-linked 2)	1.35
55	BPY2 (basic charge Y-linked 2)	-0.31
56	BPY2 (basic charge Y-linked 2)	0.08
57	C4BPA (complement component 4 binding protein alpha)	1.72
58	C4BPA (complement component 4 binding protein alpha)	1.1
59	C4BPA (complement component 4 binding protein alpha)	0.84
60	C4BPA (complement component 4 binding protein alpha)	1.51
61	CPXCR1 (CPX chromosome region candidate 1)	-1.33
62	CPXCR1 (CPX chromosome region candidate 1)	-0.7
63	CPXCR1 (CPX chromosome region candidate 1)	-0.79
64	CPXCR1 (CPX chromosome region candidate 1)	-0.78
65	SPINK8 (serine peptidase inhibitor Kazal type 8 (putative))	-0.74
66	SPINK8 (serine peptidase inhibitor Kazal type 8 (putative))	-1.12
67	SPINK8 (serine peptidase inhibitor Kazal type 8 (putative))	-0.19
68	SFTPB (surfactant protein B)	0.21
69	SFTPB (surfactant protein B)	-0.31
70	SFTPB (surfactant protein B)	0.79
71	SFTPB (surfactant protein B)	0.6
72	CNN1 (calponin 1)	0.37
73	CNN1 (calponin 1)	-0.73
74	CNN1 (calponin 1)	-0.87
75	CNN1 (calponin 1)	0.16

Ordered by “TNF reporter robust z-score” (descending): some entries from above
gene	TNF reporter robust z-score
ACOT13 (acyl-CoA thioesterase 13)	1.35
ACOT13 (acyl-CoA thioesterase 13)	0.95
CPEB4 (cytoplasmic polyadenylation element binding protein 4)	0.71
ACOT13 (acyl-CoA thioesterase 13)	0.62
CPEB4 (cytoplasmic polyadenylation element binding protein 4)	0.57
ACOT13 (acyl-CoA thioesterase 13)	0.07
ERN2 (endoplasmic reticulum to nucleus signaling 2)	-0.3
ERN2 (endoplasmic reticulum to nucleus signaling 2)	-0.34
ERN2 (endoplasmic reticulum to nucleus signaling 2)	-0.45
